Assay results reported in PubChem BioAssay AID493014 (National Center for Advancing Translational Sciences (NCATS), 2011).
The whole screen tested about 340,000 compounds, of which about 170 (0.05%) were called active. This list was built around the results that the source calls inconclusive (neither active nor inactive); the mix of calls is not that of the screen. The call rests on the fitted dose curve; in most records, active means well fitted inhibition curve with a large enough effect in the signal ratio, with a control signal flat (not every such curve was filed as active); inconclusive means small, poorly fitted or top-dose-only effect, or effect the other way, or a change in a side signal; inactive means flat fitted curve, though single readings scatter; the % refers to the signal ratio. Potencies beside an inconclusive call are fits to weak or partial responses and may not hold up.
Potency means the concentration at half of the fitted maximal effect.

Assay: qHTS Assay to Find Inhibitors of Chronic Active B-Cell Receptor Signaling;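 on activity change, negative = inhibition: plate controls were basal doxycycline-induced cells for no effect and cells given 10 µM MG132 for full effect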
Details: ABC-DLBCL IkBa-CBG/CBR reporter, luminescence ratio (green luciferase fused to IkBa over red control in TMD8 lymphoma cells), 4 h; activity change, negative = inhibition: at 46.1 µM (top of the series)
Method in brief: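 Doxycycline induced both beetle luciferases in TMD8 lymphoma cells; IKK-driven degradation limits the IkappaBalpha-fused green signal, while red luminescence normalises for cell number and nonspecific effects. Compounds tested up to 46 uM, 4 hrs.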
For CC(C)n1nc(C(=O)OCn2nnc3ccccc3c2=O)c2ccccc2c1=O, the Potency was inconclusive: 25.9 µM [falling, partial curve, poor fit]. In the case of CC(C)C1C(C#N)=C(N)Oc2n[nH]c(-c3ccccc3)c21 (configuration not stated), the Potency is reported as inconclusive: 4.11 µM [falling, partial curve, poor fit]. With O=C(COc1ccc(/C=C\[N+](=O)[O-])cc1)N1CCOCC1 the Potency was inconclusive: 3.55 µM [falling, full curve]. For O=C(CC(c1ccccc1)c1cc(Br)ccc1O)N1CCCC1 (configuration not stated), the activity change, negative = inhibition was inconclusive: -9.51%. For CCCCN(CCCC)c1ncnc2c1cnn2-c1cccc(C)c1, the “activity change, negative = inhibition” value was inactive: 24.8%. For CCOC(=O)C1=C(O)/C(=C/c2ccc(OCC(=O)O)c(OCC)c2)SC1=Nc1ccc(C)cc1, the activity change, negative = inhibition was inconclusive: -5.17%. In the case of O=C1CSC2=NCN(c3ccc4c(c3)OCO4)CN12, the activity change, negative = inhibition is reported as inconclusive: 14.8%. With O=S(=O)(c1ccc(Br)s1)N1CCN(c2ccnc3cc(Cl)ccc23)CC1 the activity change, negative = inhibition was inconclusive: 14.3%. In the case of Cc1ccc(CCNC(=O)c2coc3nc4ccccc4nc23)cc1, the “activity change, negative = inhibition” value is reported as inactive: 2.41%. For O=C(NCCc1ccc(F)cc1)c1ccc2c(=O)n3c(nc2c1)CCC3, the “activity change, negative = inhibition” value was inactive: 12.2%. With O=C(N/N=C/c1ccc(F)cc1)c1ccc(-n2cnnn2)cc1 the activity change, negative = inhibition was inconclusive: -22%. For COC(=O)c1c(NC(=O)C2Cc3ccccc3C(=O)O2)sc2c1CCCC2 (configuration not stated), the Potency was inconclusive: 13 µM [falling, partial curve, poor fit]. In the case of Cc1ccc(OC(=S)Nc2ccc(O)cc2)cc1, the activity change, negative = inhibition is reported as inconclusive: -21.6%. With CCOc1cc(CNS(=O)(=O)c2ccc3c(c2)CC(=O)N3C)cc(OCC)c1OCC the activity change, negative = inhibition was inconclusive: -1.2%. With c1ccc2[nH]c(-c3cscn3)nc2c1 the Potency was inconclusive: 22.4 µM [falling, single point]. In the case of CCCCC1CC(CSC(=N)N)OC1=O (configuration not stated), the activity change, negative = inhibition is reported as inconclusive: -20.2%. With COCCCNc1nc2ccccc2nc1NS(=O)(=O)c1ccc(F)cc1 the activity change, negative = inhibition was inconclusive: 5.82%. With CC(C)c1ccc(O)c(NC(=S)NC(=O)c2cccnc2)c1 the Potency was inconclusive: 31.6 µM [falling, single point]. In the case of CN(C)S(=O)(=O)Nc1cccc(Br)c1, the activity change, negative = inhibition is reported as inconclusive: 13.4%. With COc1cccc(OCC(=O)NC2CCCCC2)c1 the Potency was inconclusive: 22.4 µM [falling, single point]. For Cc1cc(C(=O)OCC(=O)NNC(=O)c2cccs2)ccc1[N+](=O)[O-], the “activity change, negative = inhibition” value was inactive: -2.02%. With O=C(CN1C(=O)S/C(=C\c2ccc(Cl)cc2)C1=O)NC1C=CS(=O)(=O)C1 (configuration not stated) the Potency was inconclusive: 5.01 µM [falling, full curve].
